PubChem BioAssay AID1224828, NIAID – 2016

- Screen: 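Regulators linking TLR4 signalling to p65 nuclear translocation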 (primary screen)
- Cells: mouse RAW264.7 G9 macrophage reporter cells (GFP-p65, Tnf promoter-mCherry)
- Reagents: siRNA pool against mouse genes, 100 nM
- Timing: 2 days siRNA transfection, then 40 min LPS before fixation
- Conditions: LPS (Salmonella minnesota R595) at 10 ng/ml
- Detection: 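Microscopy ratio of nuclear to perinuclear-ring GFP-p65 signal, scaled to the plate median; gene score is the average of two replicate robust z-scores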
- Scale: p65 translocation robust z-score: higher = more nuclear NF-kappaB p65 after LPS than the plate median; nuclear/cytoplasmic p65 ratio: higher = more nuclear NF-kappaB p65
- Hit rule: 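Called active when z exceeds 3.3 or falls under -1.56 (median of Tlr4 controls), giving activity score of at least 50; no calls for control wells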
- Calls: active = hit (p65 shift raised or lowered); inactive = no clear change
The deposit covers about 17,000 reagents; this is an unselected part. 762 of all reagents (4.5%) were called active. 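Active calls include both raised and lowered p65 entry, mostly lowered; wells with fewer than 50 cells lack a z-score.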 Raw values are not corrected between plates.

target gene	p65 translocation robust z-score	nuclear/cytoplasmic p65 ratio, rep 1	nuclear/cytoplasmic p65 ratio, rep 2	low cell count flag	activity call
Mccc1 (methylcrotonoyl-Coenzyme A carboxylase 1 (alpha))	0.01	1.45	1.33	enough cells to score	inactive
B3gnt7	0.57	1.58	1.69	enough cells to score	inactive
Rhobtb1 (Rho-related BTB domain containing 1)	-0.7	1.45	1.39	enough cells to score	inactive
Oprm1 (opioid receptor, mu 1)	-1.29	1.33	1.49	enough cells to score	inactive
Pdyn (prodynorphin)	-0.51	1.17	1.19	enough cells to score	inactive
Tspyl1 (testis-specific protein, Y-encoded-like 1)		1.86	1.46	fewer than 50 cells per well; well left out of scoring	inactive
Or10ag57 (olfactory receptor family 10 subfamily AG member 57)	1.47	1.9	1.78	enough cells to score	inactive
Egr1 (early growth response 1)	-1.26	1.27	1.23	enough cells to score	inactive
Lect2 (leukocyte cell-derived chemotaxin 2)	1.53	1.79	1.62	enough cells to score	inactive
Gsta3 (glutathione S-transferase, alpha 3)	-3.19	1.17	1.08	enough cells to score	active
Wars2 (tryptophanyl tRNA synthetase 2 (mitochondrial))	-0.45	1.31	1.2	enough cells to score	inactive
Mrpl15 (mitochondrial ribosomal protein L15)	0.23	1.81	1.64	enough cells to score	inactive
Scgb3a2 (secretoglobin, family 3A, member 2)	3.67	2.35	1.81	enough cells to score	active
Casd1 (CAS1 domain containing 1)	-1.01	1.48	1.58	enough cells to score	inactive
Lrrc8d (leucine rich repeat containing 8D)		1.59	1.51	fewer than 50 cells per well; well left out of scoring	inactive
U2af2 (U2 small nuclear ribonucleoprotein auxiliary factor (U2AF) 2)		1.44	1.06	fewer than 50 cells per well; well left out of scoring	inactive
Nxph1 (neurexophilin 1)	-1.51	1.46	1.33	enough cells to score	inactive
Kcna3	0.39	1.52	1.44	enough cells to score	inactive
Dnaja4 (DnaJ heat shock protein family (Hsp40) member A4)	0.18	1.47	1.43	enough cells to score	inactive
Mast2 (microtubule associated serine/threonine kinase 2)	1.03	1.67	1.65	enough cells to score	inactive
Sar1b (secretion associated Ras related GTPase 1B)	0.58	1.5	1.28	enough cells to score	inactive
9030612E09Rik (RIKEN cDNA 9030612E09 gene)		1.28	1.67	fewer than 50 cells per well; well left out of scoring	inactive
Or10q1b (olfactory receptor family 10 subfamily Q member 1B)	3.44	2.04	1.95	enough cells to score	active
Cfap61 (cilia and flagella associated protein 61)	0.6	1.34	1.37	enough cells to score	inactive
